Laboratory results reported in patent publication US20220133702A1, “CYSTIC FIBROSIS TRANSMEMBRANE CONDUCTANCE REGULATOR MODULATORS FOR TREATING AUTOSOMAL DOMINANT POLYCYSTIC KIDNEY DISEASE” (The Johns Hopkins University, priority 2020, published 2022).
At least one structure is not confirmed: it was looked up by name or label, or the drawing left a doubt.

Test system: PN (pkd1-null) cells
Experiment: In vitro cystogenesis (3D Matrigel culture, cyst size by cross-sectional area)
Type: cell-based, mouse
Conditions: forskolin alone vs control cells
Method: Cells were treated with DMSO (control), VX-809, or C18 (10 μM) plus or minus forskolin on Days 0, 2, 4, 6, 8, 10, 12, 14. […] Cells were treated with DMSO (control), C18 or VX-809 (10 μM) from 9-16 (7) days. All pictures were taken on Day 16. Columns represent means±SEM (n=6). The average cyst size from the control group was considered 100%, and the sizes of the rest of the cysts were compared with this average. ****P<0.0001. Cyst size was estimated from the cross-sectional area;
VX-809 Reduces Cyst Growth in Vitro Experiments were conducted using a model ADPKD cell line (PH=pkd1+/− heterozygote control; PN=pkd−/− knockout), clonally isolated from single parental clones obtained from a pkdf1/− mouse that was manufactured in an ImmortoMouse containing the H-2Kb-tsA58 gene. The null cells (PN) stably express the Cre recombinase. All the cells proximal tubule origin. To determine how VX-809 reduces cyst growth, cysts were grown in the presence of forskolin (FIG. 2). […] Taken together with the animal data provided in FIG. 1, these in vitro results clearly indicate that CFTR correctors are effective in reducing cyst growth.
In vitro cytogenesis. To induce differentiation, cells were kept at 37° C. for at least 6 days without gamma-interferon. After one week, the cells were used for 3D culture or other experiments. […] Cystic areas were analyzed with ImageJ (provided by the NIH).

## C=C[C@@]1(C)CC(=O)[C@]2(O)[C@@]3(C)[C@@H](O)CCC(C)(C)[C@@H]3[C@H](O)[C@H](OC(C)=O)[C@@]2(C)O1 [forskolin]
  cyst size after forskolin: larger
